Test results reported in PubChem BioAssay AID256 (DTP/NCI, 2004).
The list is a part of this screen's results and no random one: it is rich in T/C values a quarter to a half above the control, in often repeated tests (any T/C) and in doses without a T/C. Other doses and runs of a compound stand elsewhere. T/C gives the treated animals as a percentage of the vehicle group. Some doses have a count of surviving animals in place of a T/C: the source holds a T/C of zero for them, seemingly a mark for toxic or unscored doses. Some doses without a T/C left all or most animals alive at the check, yet need not have been tolerated: survival well below the control is almost never listed, so the zero probably covers shortened survival too. Counts of survivors are from the toxicity check (mostly the fifth day) where no day follows; animals may have died later. Schedule codes are those of the source, taken here to give the interval after Q, in days (D) or hours (H), and the number of doses after X. Some entries hold several experiments; their values stand side by side, smallest first. For survival time, the PubChem record calls one and a half times the control and up active, and a quarter to a half above the control has no call in these data; cut-offs in other NCI protocols can differ. Some T/C values carry the count of animals alive at the toxicity check (mostly the fifth day); where none is given, no animal had died by that day.

Test system: CD2F1 mice, L1210 leukemia ip, survival T/C
Assay: NCI In Vivo Anticancer Drug Screen. Data for tumor model L1210 Leukemia (intraperitoneal) in CD2F1 (CDF1) mice
Settings: higher T/C = longer survival
Method in brief: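 Tumor-bearing mice (transplanted tumor) were split into treated and vehicle control groups, and the measured endpoint of each treated group was divided by that of its vehicle controls.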

[1] = T/C endpoint: median survival time, dose: 200.0 mg/kg/injection, schedule: Q01DX005 (ip), vehicle: sodium bicarbonate
[2] = T/C endpoint: median survival time, dose: 400.0 mg/kg/injection, schedule: Q01DX005 (ip), vehicle: sodium bicarbonate
[3] = T/C endpoint: mean survival time, dose: 400.0 mg/kg/injection, schedule: Q04DX002 (ip), vehicle: saline
[4] = T/C endpoint: mean survival time, dose: 400.0 mg/kg/injection, schedule: Q01DX009 (ip), vehicle: Klucel (hydroxypropylcellulose) (HPC)

Cc1c(-c2ccc(C3CCCCC3)cc2)nc2ccc(F)cc2c1C(=O)O
T/C (T/C endpoint: median survival time, dose: 12.5 mg/kg/injection, schedule: Q01DX005 (ip), vehicle: sodium bicarbonate): 127 % of control
T/C (T/C endpoint: median survival time, dose: 25.0 mg/kg/injection, schedule: Q01DX005 (ip), vehicle: sodium bicarbonate): 128 % of control
T/C (T/C endpoint: median survival time, dose: 25.0 mg/kg/injection, schedule: Q01DX009 (ip), vehicle: Klucel (hydroxypropylcellulose) (HPC)): 136 % of control
T/C (T/C endpoint: median survival time, dose: 25.0 mg/kg/injection, schedule: Q01DX009 (ip), vehicle: saline with Tween-80, evaluated on day 20): 132 % of control
T/C (T/C endpoint: median survival time, dose: 25.0 mg/kg/injection, schedule: Q01DX009 (ip), vehicle: saline with Tween-80, evaluated on day 30): 125 and 127 % of control
T/C (T/C endpoint: median survival time, dose: 25.0 mg/kg/injection, schedule: Q01DX009 (ip), vehicle: saline with Tween-80, evaluated on day 32): 117 % of control [5 of 6 alive]
T/C (T/C endpoint: median survival time, dose: 25.0 mg/kg/injection, schedule: Q01DX009 (ip), vehicle: saline with Tween-80, evaluated on day 60): 136 % of control
T/C (T/C endpoint: median survival time, dose: 50.0 mg/kg/injection, schedule: Q01DX005 (ip), vehicle: Klucel (hydroxypropylcellulose) (HPC)): 131 % of control [5 of 6 alive]
T/C (T/C endpoint: median survival time, dose: 50.0 mg/kg/injection, schedule: Q01DX009 (ip), vehicle: Klucel (hydroxypropylcellulose) (HPC)): 149 % of control
T/C (T/C endpoint: median survival time, dose: 50.0 mg/kg/injection, schedule: Q01DX009 (ip), vehicle: saline with Tween-80, evaluated on day 20): 139 % of control
T/C (T/C endpoint: median survival time, dose: 50.0 mg/kg/injection, schedule: Q01DX009 (ip), vehicle: saline with Tween-80, evaluated on day 30): 116 [2 of 3 alive] and 128 % of control
T/C (T/C endpoint: median survival time, dose: 50.0 mg/kg/injection, schedule: Q01DX009 (ip), vehicle: saline with Tween-80, evaluated on day 32): 121 % of control
T/C (T/C endpoint: median survival time, dose: 50.0 mg/kg/injection, schedule: Q01DX009 (ip), vehicle: saline with Tween-80, evaluated on day 35): 147 % of control
T/C (T/C endpoint: median survival time, dose: 50.0 mg/kg/injection, schedule: Q01DX009 (ip), vehicle: saline with Tween-80, evaluated on day 60): 156 % of control
T/C (T/C endpoint: median survival time, dose: 100.0 mg/kg/injection, schedule: Q01DX005 (ip), vehicle: Klucel (hydroxypropylcellulose) (HPC)): 132 % of control
T/C (T/C endpoint: median survival time, dose: 100.0 mg/kg/injection, schedule: Q01DX005 (ip), vehicle: sodium bicarbonate): 130 % of control [4 of 6 alive]
T/C (T/C endpoint: median survival time, dose: 100.0 mg/kg/injection, schedule: Q01DX009 (ip), vehicle: saline with Tween-80, evaluated on day 20): 168 % of control
T/C (T/C endpoint: median survival time, dose: 100.0 mg/kg/injection, schedule: Q01DX009 (ip), vehicle: saline with Tween-80, evaluated on day 30): 128 and 144 % of control
T/C (T/C endpoint: median survival time, dose: 100.0 mg/kg/injection, schedule: Q01DX009 (ip), vehicle: saline with Tween-80, evaluated on day 32): 133 % of control
T/C (T/C endpoint: median survival time, dose: 100.0 mg/kg/injection, schedule: Q01DX009 (ip), vehicle: saline with Tween-80, evaluated on day 35): 161 % of control
T/C (T/C endpoint: median survival time, dose: 100.0 mg/kg/injection, schedule: Q01DX009 (ip), vehicle: saline with Tween-80, evaluated on day 60): 189 % of control
T/C (T/C endpoint: median survival time, dose: 200.0 mg/kg/injection, schedule: Q01DX005 (ip), vehicle: Klucel (hydroxypropylcellulose) (HPC)): 132 % of control
T/C [1]: 125 and 127 % of control [5 of 6 alive]
survivor count [1]: 3 of 6
T/C (T/C endpoint: median survival time, dose: 200.0 mg/kg/injection, schedule: Q01DX009 (ip), vehicle: saline with Tween-80, evaluated on day 20): 179 % of control
T/C (T/C endpoint: median survival time, dose: 200.0 mg/kg/injection, schedule: Q01DX009 (ip), vehicle: saline with Tween-80, evaluated on day 30): 151 and 161 % of control
T/C (T/C endpoint: median survival time, dose: 200.0 mg/kg/injection, schedule: Q01DX009 (ip), vehicle: saline with Tween-80, evaluated on day 32): 155 % of control [5 of 6 alive]
T/C (T/C endpoint: median survival time, dose: 200.0 mg/kg/injection, schedule: Q01DX009 (ip), vehicle: saline with Tween-80, evaluated on day 35): 162 % of control
T/C (T/C endpoint: median survival time, dose: 200.0 mg/kg/injection, schedule: Q01DX009 (ip), vehicle: saline with Tween-80, evaluated on day 60): 189 % of control
T/C [2]: 134 % of control [5 of 6 alive]
survivor count [2]: 0 of 6 and 3 of 6
T/C (T/C endpoint: median survival time, dose: 400.0 mg/kg/injection, schedule: Q01DX009 (ip), vehicle: saline with Tween-80, evaluated on day 20): 181 % of control [5 of 6 alive]
T/C (T/C endpoint: median survival time, dose: 400.0 mg/kg/injection, schedule: Q01DX009 (ip), vehicle: saline with Tween-80, evaluated on day 30): 167 % of control
T/C (T/C endpoint: median survival time, dose: 400.0 mg/kg/injection, schedule: Q01DX009 (ip), vehicle: saline with Tween-80, evaluated on day 32): 111 % of control [5 of 6 alive]
T/C (T/C endpoint: median survival time, dose: 400.0 mg/kg/injection, schedule: Q01DX009 (ip), vehicle: saline with Tween-80, evaluated on day 35): 197 % of control
T/C (T/C endpoint: median survival time, dose: 400.0 mg/kg/injection, schedule: Q01DX009 (ip), vehicle: saline with Tween-80, evaluated on day 60): 184 % of control
survivor count (T/C endpoint: median survival time, dose: 400.0 mg/kg/injection, schedule: Q01DX009 (ip), vehicle: saline with Tween-80): 2 of 3
survivor count (T/C endpoint: median survival time, dose: 800.0 mg/kg/injection, schedule: Q01DX005 (ip), vehicle: sodium bicarbonate): 0 of 6

CN(C)CCCN=C(N)CSP(=O)(O)O
survivor count [3]: 0 of 3

C/C=C(\NC1CCCCC1)C(=O)c1ccccc1
survivor count [4]: 3 of 6

O=C1CCC2(C=C(Br)C(=O)C(Br)=C2)O1
survivor count (T/C endpoint: mean survival time, dose: 10.0 mg/kg/injection, schedule: Q01DX009 (ip), vehicle: saline with Tween-80): 2 of 6
survivor count (T/C endpoint: mean survival time, dose: 20.0 mg/kg/injection, schedule: Q01DX009 (ip), vehicle: saline with Tween-80): 2 of 6
survivor count (T/C endpoint: mean survival time, dose: 100.0 mg/kg/injection, schedule: Q04DX003 (ip), vehicle: saline with Tween-80): 0 of 6
survivor count (T/C endpoint: mean survival time, dose: 200.0 mg/kg/injection, schedule: Q04DX003 (ip), vehicle: saline with Tween-80): 0 of 6
survivor count (T/C endpoint: mean survival time, dose: 400.0 mg/kg/injection, schedule: Q04DX003 (ip), vehicle: saline with Tween-80): 0 of 6

ON(C(=Nc1ccccc1)c1ccccc1Cl)c1ccccc1
survivor count (T/C endpoint: mean survival time, dose: 25.0 mg/kg/injection, schedule: Q01DX009 (ip), vehicle: saline with Tween-80): 2 of 6
survivor count (T/C endpoint: mean survival time, dose: 50.0 mg/kg/injection, schedule: Q04DX003 (ip), vehicle: saline): 1 of 6
survivor count (T/C endpoint: mean survival time, dose: 100.0 mg/kg/injection, schedule: Q04DX003 (ip), vehicle: saline): 0 of 6
survivor count (T/C endpoint: mean survival time, dose: 200.0 mg/kg/injection, schedule: Q04DX003 (ip), vehicle: saline): 0 of 6
survivor count (T/C endpoint: mean survival time, dose: 400.0 mg/kg/injection, schedule: Q01DX001 (ip), vehicle: saline): 0 of 6

CC(CN(C)C)C(=O)c1ccccc1 (stereo unspecified)
survivor count (T/C endpoint: mean survival time, dose: 100.0 mg/kg/injection, schedule: Q04DX002 (ip), vehicle: saline): 3 of 3
survivor count (T/C endpoint: mean survival time, dose: 200.0 mg/kg/injection, schedule: Q04DX002 (ip), vehicle: saline): 3 of 3
survivor count [3]: 0 of 3

Nc1ncnc2c1ncn2C1OC(CO)C(O)C1O (stereo unspecified)
survivor count (T/C endpoint: mean survival time, dose: 50.0 mg/kg/injection, schedule: Q01DX009 (ip), vehicle: Klucel (hydroxypropylcellulose) (HPC)): 5 of 10
survivor count (T/C endpoint: mean survival time, dose: 100.0 mg/kg/injection, schedule: Q01DX009 (ip), vehicle: Klucel (hydroxypropylcellulose) (HPC)): 0 of 10
T/C (T/C endpoint: mean survival time, dose: 160.0 mg/kg/injection, schedule: Q03HX024 (ip), vehicle: saline with Tween-80): 128 and 140 % of control
survivor count (T/C endpoint: mean survival time, dose: 200.0 mg/kg/injection, schedule: Q01DX009 (ip), vehicle: Klucel (hydroxypropylcellulose) (HPC)): 0 of 10
T/C (T/C endpoint: mean survival time, dose: 240.0 mg/kg/injection, schedule: Q03HX024 (ip), vehicle: saline with Tween-80): 138 and 144 % of control
T/C (T/C endpoint: mean survival time, dose: 300.0 mg/kg/injection, schedule: Q03HX024 (ip), vehicle: saline with Tween-80): 135 % of control
T/C (T/C endpoint: mean survival time, dose: 320.0 mg/kg/injection, schedule: Q03HX024 (ip), vehicle: saline with Tween-80): 149 % of control
survivor count [4]: 0 of 10
T/C (T/C endpoint: mean survival time, dose: 600.0 mg/kg/injection, schedule: Q01DX009 (ip), vehicle: saline): 127 % of control
survivor count (T/C endpoint: median survival time, dose: 50.0 mg/kg/injection, schedule: Q01DX009 (ip), vehicle: saline): 7 of 8
survivor count (T/C endpoint: median survival time, dose: 100.0 mg/kg/injection, schedule: Q01DX009 (ip), vehicle: saline): 2 of 5 and 5 of 8

CC(C(=O)c1ccccc1)C(c1ccccc1)P(=O)(c1ccccc1)c1ccccc1 (stereo unspecified)
survivor count (T/C endpoint: mean survival time, dose: 200.0 mg/kg/injection, schedule: Q01DX009 (ip), vehicle: saline with Tween-80): 3 of 6

CCOP1(=O)OCC(C(C)(C)C)CO1 (stereo unspecified)
survivor count (T/C endpoint: mean survival time, dose: 50.0 mg/kg/injection, schedule: Q04DX003 (ip), vehicle: Klucel (hydroxypropylcellulose) (HPC)): 0 of 6
